# According to PubChem BioAssay AID2685 (National Center for Advancing Translational Sciences (NCATS), 2010):
# Hit rate of the full screen: of about 320,000 compounds, about 2,100 (0.66%) were called active. This list was built around the results that the source calls inconclusive (neither active nor inactive); the mix of calls is not that of the screen. The call rests on the fitted dose curve; in most records, active means well fitted inhibition curve with a large enough effect in the signal ratio, with a control signal flat (not every such curve was filed as active); inconclusive means small, poorly fitted or top-dose-only effect, or effect the other way, or a change in a side signal; inactive means flat fitted curve, though single readings scatter; the % refers to the signal ratio. Where the call is inconclusive, the potency comes from a doubtful curve fit.
# Test: qHTS Assay for Lipid Storage Modulators in Drosophila S3 Cells
# Settings: BODIPY lipid droplet fluorescence, 18-24 h, cells fed with added oleic acid; lipid storage change, negative = inhibition: at 46.1 µM (top of the series) unless noted
# How it was run: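 Drosophila S3 cells got compounds at several concentrations plus oleic acid (400 uM solution). Laser-scanning cytometry with 488 nm excitation read lipid droplets at 500-530 nm and cells at 575-640 nm. Percent activity was relative to 20 uM Triacsin C.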
# On the % scale 0 is the no-effect control and ±100 the full control effect; potency means the concentration at half of the fitted maximal effect.
Structure (SMILES),"lipid storage change, negative = inhibition",Potency
CC(C(=O)NCc1ccc2c(c1)OCO2)N(c1ccccc1)S(C)(=O)=O (stereo unspecified),inactive,–
COc1ccc(CCN(C)Cc2ccc(C(=O)Nc3ccccc3)cc2)cc1OC,inconclusive: 21.9%,–
O=C(/C=C/c1ccccc1Cl)NCc1cccs1,inconclusive: 20.7%,–
COc1ccccc1NC(=O)COC(=O)C12CC3CC(CC(Cl)(C3)C1)C2,inconclusive: 8.22%,–
CCCC(=O)NCCCc1nc2ccccc2n1CCC,inconclusive: 20.7%,–
O=[N+]([O-])c1cc2c(c(CSc3ncccn3)c1)OCOC2,–,"inconclusive: 0.82 µM [activator, full curve]"
Cc1ccc(NC2CCCN(C(=O)CCC3(C)CC3)C2)cc1C (stereo unspecified),–,"inconclusive: 2.31 µM [falling, partial curve]"
CCC(=O)NCc1cc(-c2nn(C)c(=O)c3ccccc23)ccc1C,–,"inconclusive: 5.8 µM [activator, partial curve]"
Cc1ccc(NC(=O)c2cc(N3C(=O)C4CC=CCC4C3=O)ccc2N2CCOCC2)cc1Cl (stereo unspecified),–,"inconclusive: 16.4 µM [activator, partial curve]"
Cc1ccc(C(=O)CC(=O)c2cc(Cl)ccc2O)cc1,inconclusive: -2.4%,–
Cc1ccc(C(C)NC(=O)c2cc3cc(Br)ccc3oc2=N)cc1 (stereo unspecified),inconclusive: -62.7%,–
O/N=C(\Cc1cscn1)c1ccc(O)cc1O,–,"inconclusive: 0.0231 µM [falling, full curve]"
Cc1ccc(C)c(COC(=O)c2cc([N+](=O)[O-])ccc2N2CCOCC2)c1,inconclusive,–
O=C(O)CCNC(=O)C12CC3CC(CC(C3)C1)C2,–,"inconclusive: 23.1 µM [falling, single point]"
Cc1cc(=O)oc2cc(OCC(=O)N3CC(C)OC(C)C3)ccc12 (stereo unspecified),inconclusive: -12.7%,–
Cc1cc([N+](=O)[O-])ccc1NC(=O)C(C)N1CCN(c2ccccn2)CC1 (stereo unspecified),inconclusive: 20.4%,–
COc1ccc(OC)c(/C=N\NC(=O)c2ccc(-c3ccccc3)cc2)c1,–,"inconclusive: 29.1 µM [falling, single point]"
FC(F)(F)c1ccccc1NC(=S)NN1CCOCC1,–,"inconclusive: 14.6 µM [activator, single point]"
NC(=O)c1cccc2c1C(=O)N(C1CCCCC1)C2,–,"inconclusive: 23.1 µM [activator, partial curve, poor fit]"
CCn1c(SCC(=O)N/N=C(\C)c2ccco2)nnc1-c1ccccc1,inconclusive: 16.1%,–
COC(=O)c1c(NC(=O)C2CC(C)=C(C)CC2C(=O)O)sc2c1CCCCC2 (stereo unspecified),–,"inconclusive: 16.4 µM [activator, partial curve]"
COc1cc2[nH]c(=O)n(CCC(=O)NC3CCCC3)c(=O)c2cc1OC,inconclusive: -7.97%,–
CC1CCCN(CC(=O)Nc2ccc(S(=O)(=O)N3CCCC3)cc2)C1 (stereo unspecified),–,"inconclusive: 29.1 µM [activator, single point]"
CC(=O)Nc1cccc(C(=O)NCCc2ccco2)c1,inactive,–
CCCOc1ccccc1/C=N/NC(=O)C1CC1,inconclusive: 53.7%,–
O=C1N(CC(=O)N2CCc3ccccc32)CCN1Cc1ccccc1Cl,inconclusive: -1.98%,–

# By substructure, the compounds so far with a nitro group on carbon.
Structure (SMILES),"lipid storage change, negative = inhibition",Potency
O=[N+]([O-])c1cc2c(c(CSc3ncccn3)c1)OCOC2,–,"inconclusive: 0.82 µM [activator, full curve]"
Cc1ccc(C)c(COC(=O)c2cc([N+](=O)[O-])ccc2N2CCOCC2)c1,inconclusive,–
Cc1cc([N+](=O)[O-])ccc1NC(=O)C(C)N1CCN(c2ccccn2)CC1 (stereo unspecified),inconclusive: 20.4%,–

# (continued)

Structure (SMILES),"lipid storage change, negative = inhibition",Potency
COc1ccc(CNC(=O)C2CCC(CNS(=O)(=O)c3ccccc3)CC2)cc1 (stereo unspecified),–,"inconclusive: 0.731 µM [activator, single point]"
COc1ccc(-c2noc(CSc3nnc(-c4ccncc4)n3-c3ccc(F)cc3)n2)cc1OC,–,"inconclusive: 0.731 µM [activator, partial curve]"
CCC1CCCCN1CCCn1c(=S)[nH]c2ccccc2c1=O (stereo unspecified),inconclusive: 6.26%,–
Cc1ccc(NC(=O)c2ccc3c(c2)C(=O)N(c2cc(C)ccc2C)C3=O)nc1,inconclusive: 287%,–
Cc1cc(C(F)(F)F)nc(SCC(=O)Nc2ccccc2)n1,–,"inconclusive: 1.46 µM [activator, partial curve]"
NC(=O)c1ccccc1OCC(=O)O,inconclusive: 1.2%,–
CCOC(=O)C(NCc1ccccc1)(NC(=O)c1ccccc1)C(F)(F)F (stereo unspecified),–,"inconclusive: 6.51 µM [falling, partial curve]"
CCOC(=O)C1CCCN(c2c(Nc3ccc(OCC)cc3)c(=O)c2=O)C1 (stereo unspecified),inconclusive: -2.15%,–
O=c1c2nccnc2[nH]c(=S)n1Cc1ccccc1Cl,inconclusive: -36.7%,–
COc1ccc([C@]23Cc4cc(OC)c(OC)cc4C(O2)c2c(cc(-c4ccccc4)oc2=O)O3)cc1,–,"inconclusive: 0.531 µM [activator, partial curve, poor fit]"
CC1(C)N=C(c2ccc(Cl)cc2Cl)C(=O)N1,inconclusive: 13.4%,–
O=C(Nc1nc2ccc([N+](=O)[O-])cc2s1)c1ccco1,inconclusive: -66.4%,–
O=S(=O)(Nc1cccc2cccnc12)c1ccccc1,inconclusive: 23%,–
CCOc1ccc(C(=O)NC(C)C2COc3ccccc3O2)cc1 (stereo unspecified),inconclusive: -10%,–
CCC(=O)NCCCOc1ccccc1,inconclusive: -4.44%,–
Cc1cc(=O)oc2c(C)c(OCC(=O)NCCCn3ccnc3)ccc12,inconclusive: -38.2%,–
CCCCNS(=O)(=O)c1ccc(NC(=O)Cc2ccc(OC)cc2)cc1,–,"inconclusive: 1.03 µM [activator, full curve]"
COc1cccc(/C=C/C(=O)c2cccc([N+](=O)[O-])c2)c1,inconclusive: -47.6%,–
C=CCNC(=O)c1ccccc1NC(=O)c1ccccc1SC,inconclusive: -8.93%,–
Cc1cc(C)n2nc(C(=O)OCC(=O)NNC(=O)c3ccc(Cl)cc3)nc2n1,inactive,–
CCOc1ccc(NC(=O)COC(=O)c2ccc3ncsc3c2)cc1OCC,inconclusive,–
CCC(C)N1C(=O)CCC1C(=O)NCc1ccc2c(c1)OCO2 (stereo unspecified),inconclusive: -25.6% [at 9.22 µM],–
O=[N+]([O-])c1ccccc1CNC1CCCCCC1,inconclusive: -4.57%,–
COc1ccc(CC(=O)NC2CCN(Cc3nnnn3C(C)(C)C)CC2)cc1OC,–,active: 2.59 µM
CC(=O)Oc1ccc(C(=O)NCc2ccco2)cc1,inconclusive: 25.8%,–
